Our source for the binding values is article PMC13557712, “Nim1-related kinases regulate septin organization and cytokinesis by modulating Hof1 at the cell division site” (eLife, 2026).

No constants are given. Whether binding was seen depends on the method and setting. Some entries that bind do so weakly or less than the wild type.

Assay [1] deals with T1, full-length Hof1 (S. cerevisiae) (UniProt Q05080).
T1 sequence: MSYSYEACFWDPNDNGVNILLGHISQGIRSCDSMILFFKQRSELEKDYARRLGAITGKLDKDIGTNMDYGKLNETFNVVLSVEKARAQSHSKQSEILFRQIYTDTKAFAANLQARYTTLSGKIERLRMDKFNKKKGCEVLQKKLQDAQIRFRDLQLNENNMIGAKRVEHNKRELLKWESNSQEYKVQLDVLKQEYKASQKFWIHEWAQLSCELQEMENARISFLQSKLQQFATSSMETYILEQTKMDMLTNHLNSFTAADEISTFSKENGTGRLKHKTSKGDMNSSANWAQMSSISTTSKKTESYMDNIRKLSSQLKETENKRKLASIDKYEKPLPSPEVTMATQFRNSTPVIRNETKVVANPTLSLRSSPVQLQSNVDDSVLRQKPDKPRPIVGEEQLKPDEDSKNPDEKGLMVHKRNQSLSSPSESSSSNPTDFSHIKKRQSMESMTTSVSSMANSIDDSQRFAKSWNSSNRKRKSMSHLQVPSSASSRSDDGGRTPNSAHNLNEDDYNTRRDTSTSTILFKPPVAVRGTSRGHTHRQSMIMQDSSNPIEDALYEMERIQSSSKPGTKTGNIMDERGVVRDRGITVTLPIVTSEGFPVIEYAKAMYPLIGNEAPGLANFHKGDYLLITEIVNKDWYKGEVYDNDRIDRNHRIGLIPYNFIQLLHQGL
The assay is described as follows: two-hybrid; LexA DNA-binding domain (pMM5S) and Gal4 activation domain (pMM6S) fusions; SGY37 and YPH500 mated, SC-His-Leu, 30°C, X-Gal overlay for β-galactosidase, scanned after 14–16 hr.

The target in assay [2] is T2, N-terminal Hof1 fragment (1–350 aa) (S. cerevisiae) (UniProt Q05080).
T2 sequence: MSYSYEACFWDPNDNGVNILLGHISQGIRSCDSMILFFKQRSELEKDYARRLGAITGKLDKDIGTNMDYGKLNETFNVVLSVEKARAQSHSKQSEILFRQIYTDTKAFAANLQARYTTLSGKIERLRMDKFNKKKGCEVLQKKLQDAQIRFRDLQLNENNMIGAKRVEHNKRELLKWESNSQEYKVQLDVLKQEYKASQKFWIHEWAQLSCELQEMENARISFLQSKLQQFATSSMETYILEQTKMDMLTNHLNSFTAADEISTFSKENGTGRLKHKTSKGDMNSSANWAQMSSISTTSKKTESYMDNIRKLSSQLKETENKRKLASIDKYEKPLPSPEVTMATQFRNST
The description is as above.

B1: full-length Elm1 (protein, UniProt P32801 1-640)
chain: MSPRQLIPTLIPEWAPLSQQSCIREDELDSPPITPTSQTSSFGSSFSQQKPTYSTIIGENIHTILDEIRPYVKKITVSDQDKKTINQYTLGVSAGSGQFGYVRKAYSSTLGKVVAVKIIPKKPWNAQQYSVNQVMRQIQLWKSKGKITTNMSGNEAMRLMNIEKCRWEIFAASRLRNNVHIVRLIECLDSPFSESIWIVTNWCSLGELQWKRDDDEDILPQWKKIVISNCSVSTFAKKILEDMTKGLEYLHSQGCIHRDIKPSNILLDEEEKVAKLSDFGSCIFTPQSLPFSDANFEDCFQRELNKIVGTPAFIAPELCHLGNSKRDFVTDGFKLDIWSLGVTLYCLLYNELPFFGENEFETYHKIIEVSLSSKINGNTLNDLVIKRLLEKDVTLRISIQDLVKVLSRDQPIDSRNHSQISSSSVNPVRNEGPVRRFFGRLLTKKGKKKTSGKGKDKVLVSATSKVTPSIHIDEEPDKECFSTTVLRSSPDSSDYCSSLGEEAIQVTDFLDTFCRSNESLPNLTVNNDKQNSDMKTDRSESSSHSSLKIPTPIKAMIRLKSSPKENGNRTHINCSQDKPSSPLMDRTVGKRTVNNSGARKLAHSSNILNFKAYINSEDSDIRETVEDVKTYLNFADNGQI
Consider B1, for which the binding result in assay [1] is “no binding”.

B2: 6His-bdSUMO-Gin4-KA1 (1003–1142 aa) (domain or fragment, S. cerevisiae, UniProt Q12263 1003-1142, looked up)
chain: GSQAKDHSKDHLKEHKQDKNTAIGNGSFFRKFSKSSDKTMELYAKISAKQLFNGLEKLLRGWTQYGLKNIKSHPNNLTLTGKLSSDNIFSLRSTLFEVNIYPRGKMSVVQFKKVSGSFKAVKKLVNEVENVLNKEGVLQK
notes: also called 6xHis-bdSUMO-Gin4^KA1; source: E. coli BL21-DE3, purified (Ni-NTA, buffer exchange); not shown: His6, N-terminal, kept; bdSUMO, N-terminal, kept
As to B2, the binding result in assay [2] and in assay [1] was “binds” in each case.

B3: Gin4 Kinase Independent Domain (KID; 290–1142 aa) (domain or fragment, UniProt Q12263 290-1142)
chain: QKYPSIRDSKSIRGLPREDTYLTPLSESNSSIDATILQNLVILWHGRDPEGIKEKLREPGANAEKTLYALLYRFKCDTQKELIKQQQVKKRQSISSVSVSPSKKVSTTPQRRRNRESLISVTSSRKKPISFNKFTASSASSSNLTTPGSSKRLSKNFSSKKKLSTIVNQSSPTPASRNKRASVINVEKNQKRASIFSTTKKNKRSSRSIKRMSLIPSMKRESVTTKLMSTYAKLAEDDDWEYIEKETKRTSSNFATLIDEIFEYEKYEQIRKEKEELERKVREAKAREELERRRRKQEEKERARKLLEKEDLKRKQEELKKQIEIDISDLEQELSKHKEEKLDGNIRSISAPMENEEKNINHLEVDIDNILRRRNFSLQTRPVSRLDPGIMFSSPTEEVSPVEPKRTENERLTTEKKILETIRRSKFLGSSFNIDKELKLSKMEYPSIIAPQRLSEERVVSDSNDGYESLILPKDGNGVSQLKDSTATTAPVSDGRLRKISEIRVPQFTRKSRHFSESNKRLSVLSMYSTKESFTNLVDILKNGNLDVNNQQSQRIPTPRSADDSEFLFETVNEEAEYTGNSSNDERLYDVGDSTIKDKSALKLNFADRFNGSNEAKQTDNLHLPILPPLNGDNELRKQNSQEGDQAHPKIKSMIPESGSSSHTEKEEENEEKEEKKPEQHKQEEDQEKREKVVDDMEPPLNKSVQKIREKNAGSQAKDHSKDHLKEHKQDKNTAIGNGSFFRKFSKSSDKTMELYAKISAKQLFNGLEKLLRGWTQYGLKNIKSHPNNLTLTGKLSSDNIFSLRSTLFEVNIYPRGKMSVVQFKKVSGSFKAVKKLVNEVENVLNKEGVLQK
Consider B3, for which the binding entry in assay [1] is “binds”.

B4: Elm1 C-terminal fragment (421–640 aa) (domain or fragment, UniProt P32801 421-640)
chain: SSSSVNPVRNEGPVRRFFGRLLTKKGKKKTSGKGKDKVLVSATSKVTPSIHIDEEPDKECFSTTVLRSSPDSSDYCSSLGEEAIQVTDFLDTFCRSNESLPNLTVNNDKQNSDMKTDRSESSSHSSLKIPTPIKAMIRLKSSPKENGNRTHINCSQDKPSSPLMDRTVGKRTVNNSGARKLAHSSNILNFKAYINSEDSDIRETVEDVKTYLNFADNGQI
On to B4, for which the binding entry in assay [1] is given as “no binding”.

B5: full-length Gin4 (protein, UniProt Q12263 1-1142)
chain: MAINGNSIPAIKDNTIGPWKLGETLGLGSTGKVQLARNGSTGQEAAVKVISKAVFNTGNVSGTSIVGSTTPDALPYGIEREIIIMKLLNHPNVLRLYDVWETNTDLYLVLEYAEKGELFNLLVERGPLPEHEAIRFFRQIIIGVSYCHALGIVHRDLKPENLLLDHKYNIKIADFGMAALETEGKLLETSCGSPHYAAPEIVSGIPYQGFASDVWSCGVILFALLTGRLPFDEEDGNIRTLLLKVQKGEFEMPSDDEISREAQDLIRKILTVDPERRIKTRDILKHPLLQKYPSIRDSKSIRGLPREDTYLTPLSESNSSIDATILQNLVILWHGRDPEGIKEKLREPGANAEKTLYALLYRFKCDTQKELIKQQQVKKRQSISSVSVSPSKKVSTTPQRRRNRESLISVTSSRKKPISFNKFTASSASSSNLTTPGSSKRLSKNFSSKKKLSTIVNQSSPTPASRNKRASVINVEKNQKRASIFSTTKKNKRSSRSIKRMSLIPSMKRESVTTKLMSTYAKLAEDDDWEYIEKETKRTSSNFATLIDEIFEYEKYEQIRKEKEELERKVREAKAREELERRRRKQEEKERARKLLEKEDLKRKQEELKKQIEIDISDLEQELSKHKEEKLDGNIRSISAPMENEEKNINHLEVDIDNILRRRNFSLQTRPVSRLDPGIMFSSPTEEVSPVEPKRTENERLTTEKKILETIRRSKFLGSSFNIDKELKLSKMEYPSIIAPQRLSEERVVSDSNDGYESLILPKDGNGVSQLKDSTATTAPVSDGRLRKISEIRVPQFTRKSRHFSESNKRLSVLSMYSTKESFTNLVDILKNGNLDVNNQQSQRIPTPRSADDSEFLFETVNEEAEYTGNSSNDERLYDVGDSTIKDKSALKLNFADRFNGSNEAKQTDNLHLPILPPLNGDNELRKQNSQEGDQAHPKIKSMIPESGSSSHTEKEEENEEKEEKKPEQHKQEEDQEKREKVVDDMEPPLNKSVQKIREKNAGSQAKDHSKDHLKEHKQDKNTAIGNGSFFRKFSKSSDKTMELYAKISAKQLFNGLEKLLRGWTQYGLKNIKSHPNNLTLTGKLSSDNIFSLRSTLFEVNIYPRGKMSVVQFKKVSGSFKAVKKLVNEVENVLNKEGVLQK
Consider B5, for which, in assay [1], the binding result was “no binding”.
